Assay results as given in paper PMC5995870.
These are yes or no findings as the source states them, for the method shown. For some assays here: Binding seen in cells or lysates may run through a third protein. Some entries that bind do so weakly or less than the wild type. For some assays here: Where a sequence is shown, tags or fusion partners need not be part of it.

Sequences of proteins named here, by UniProt entry; tags and fusion partners are left off.
UniProt O00303: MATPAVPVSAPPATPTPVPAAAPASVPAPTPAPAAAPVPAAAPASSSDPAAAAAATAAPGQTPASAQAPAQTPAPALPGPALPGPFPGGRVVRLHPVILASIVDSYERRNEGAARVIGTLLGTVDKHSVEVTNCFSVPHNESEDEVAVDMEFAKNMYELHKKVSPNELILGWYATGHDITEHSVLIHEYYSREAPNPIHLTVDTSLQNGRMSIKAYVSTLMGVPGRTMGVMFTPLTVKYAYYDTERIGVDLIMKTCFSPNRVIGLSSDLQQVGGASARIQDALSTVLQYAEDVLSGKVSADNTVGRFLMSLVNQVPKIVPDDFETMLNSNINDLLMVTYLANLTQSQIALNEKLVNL
UniProt Q6GQQ9: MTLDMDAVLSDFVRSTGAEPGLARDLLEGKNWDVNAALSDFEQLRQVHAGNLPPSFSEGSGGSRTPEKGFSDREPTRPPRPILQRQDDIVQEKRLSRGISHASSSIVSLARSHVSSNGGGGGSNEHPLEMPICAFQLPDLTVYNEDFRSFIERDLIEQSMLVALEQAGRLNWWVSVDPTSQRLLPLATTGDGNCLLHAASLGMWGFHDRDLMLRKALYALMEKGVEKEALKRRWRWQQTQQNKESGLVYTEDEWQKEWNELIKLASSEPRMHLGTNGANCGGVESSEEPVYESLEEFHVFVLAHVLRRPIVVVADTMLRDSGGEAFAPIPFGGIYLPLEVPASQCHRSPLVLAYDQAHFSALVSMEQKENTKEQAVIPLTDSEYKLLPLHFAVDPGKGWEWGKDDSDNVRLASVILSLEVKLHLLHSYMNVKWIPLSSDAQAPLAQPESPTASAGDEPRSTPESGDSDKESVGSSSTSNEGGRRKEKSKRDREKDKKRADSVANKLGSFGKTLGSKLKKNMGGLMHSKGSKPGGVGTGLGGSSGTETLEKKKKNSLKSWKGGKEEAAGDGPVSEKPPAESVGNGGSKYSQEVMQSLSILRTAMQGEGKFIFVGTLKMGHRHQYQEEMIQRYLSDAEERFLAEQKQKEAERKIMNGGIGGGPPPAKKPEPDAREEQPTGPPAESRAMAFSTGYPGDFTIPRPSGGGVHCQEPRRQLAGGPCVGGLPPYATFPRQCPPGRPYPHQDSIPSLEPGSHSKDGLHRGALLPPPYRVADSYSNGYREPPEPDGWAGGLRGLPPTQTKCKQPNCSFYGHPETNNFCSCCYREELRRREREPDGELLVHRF
UniProt Q14694: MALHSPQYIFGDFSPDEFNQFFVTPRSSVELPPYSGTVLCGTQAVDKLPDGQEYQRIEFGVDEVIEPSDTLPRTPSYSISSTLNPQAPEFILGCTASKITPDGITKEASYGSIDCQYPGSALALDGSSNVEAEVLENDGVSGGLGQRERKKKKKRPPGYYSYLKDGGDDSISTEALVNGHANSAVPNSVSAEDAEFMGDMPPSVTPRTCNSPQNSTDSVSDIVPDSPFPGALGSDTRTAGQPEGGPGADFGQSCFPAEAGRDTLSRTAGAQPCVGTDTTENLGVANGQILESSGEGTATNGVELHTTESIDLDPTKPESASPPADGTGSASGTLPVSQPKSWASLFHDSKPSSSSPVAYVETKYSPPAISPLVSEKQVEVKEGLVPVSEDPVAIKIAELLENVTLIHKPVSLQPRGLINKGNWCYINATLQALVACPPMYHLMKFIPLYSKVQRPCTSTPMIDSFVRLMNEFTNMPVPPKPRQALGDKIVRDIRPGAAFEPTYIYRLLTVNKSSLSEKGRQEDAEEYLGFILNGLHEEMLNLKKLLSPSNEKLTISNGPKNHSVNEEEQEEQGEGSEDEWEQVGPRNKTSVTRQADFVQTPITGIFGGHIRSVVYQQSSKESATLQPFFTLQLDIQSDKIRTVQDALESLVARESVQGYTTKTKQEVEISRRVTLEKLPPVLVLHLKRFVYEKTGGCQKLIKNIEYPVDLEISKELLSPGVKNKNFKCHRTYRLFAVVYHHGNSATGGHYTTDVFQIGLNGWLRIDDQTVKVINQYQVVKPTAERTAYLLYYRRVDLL
UniProt Q5VVQ6: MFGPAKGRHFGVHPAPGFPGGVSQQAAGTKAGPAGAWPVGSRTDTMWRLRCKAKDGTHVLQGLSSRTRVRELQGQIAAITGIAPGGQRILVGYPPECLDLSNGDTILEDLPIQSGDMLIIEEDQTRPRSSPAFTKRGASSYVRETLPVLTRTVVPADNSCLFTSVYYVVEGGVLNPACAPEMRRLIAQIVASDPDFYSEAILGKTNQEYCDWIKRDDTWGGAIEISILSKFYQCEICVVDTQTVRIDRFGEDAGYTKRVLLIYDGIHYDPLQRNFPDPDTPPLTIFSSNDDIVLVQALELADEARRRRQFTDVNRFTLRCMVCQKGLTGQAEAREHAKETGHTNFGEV

Legend:
[1] = molecular target: SFB-tagged EIF3S5 (human) (UniProt O00303); assay: pull-down; SFB-tagged DUBs co-transfected with MYC-YAP into HEK293T cells; pulldown with S-protein beads; blots for FLAG and MYC
SFB-tagged JOSD2 (human) = molecular target: T1, SFB-tagged JOSD2 (human) (UniProt Q8TAC2); assay: as above
T1 sequence: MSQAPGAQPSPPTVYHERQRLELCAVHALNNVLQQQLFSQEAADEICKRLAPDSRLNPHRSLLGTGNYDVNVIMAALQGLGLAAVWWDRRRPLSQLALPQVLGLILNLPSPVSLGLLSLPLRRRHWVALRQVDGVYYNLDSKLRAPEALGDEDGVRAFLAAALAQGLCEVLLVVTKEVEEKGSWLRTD

SFB-tagged OTUD1 (human) = molecular target: T2, SFB-tagged OTUD1 (human) (UniProt Q5VV17); assay: as above
T2 sequence: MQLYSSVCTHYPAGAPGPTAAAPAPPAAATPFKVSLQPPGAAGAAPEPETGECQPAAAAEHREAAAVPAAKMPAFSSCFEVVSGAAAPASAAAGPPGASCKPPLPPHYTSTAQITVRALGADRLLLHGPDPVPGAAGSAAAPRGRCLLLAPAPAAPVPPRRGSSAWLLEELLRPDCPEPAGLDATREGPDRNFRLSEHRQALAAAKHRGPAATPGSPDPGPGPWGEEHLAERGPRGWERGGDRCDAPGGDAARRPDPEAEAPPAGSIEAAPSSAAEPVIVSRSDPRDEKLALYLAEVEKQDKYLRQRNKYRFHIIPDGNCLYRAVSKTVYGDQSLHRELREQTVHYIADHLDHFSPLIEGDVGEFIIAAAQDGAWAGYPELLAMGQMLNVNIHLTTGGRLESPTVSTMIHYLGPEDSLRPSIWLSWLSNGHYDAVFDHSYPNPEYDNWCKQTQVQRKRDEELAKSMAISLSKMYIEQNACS

[2] = molecular target: SFB-tagged OTUD7B (human) (UniProt Q6GQQ9); assay: as above
SFB-tagged USP10 (human) = SFB-tagged USP10 (human) (UniProt Q14694); assay: as above
SFB-tagged USP47 (human) = molecular target: T3, SFB-tagged USP47 (human) (UniProt Q96K76); assay: as above
T3 sequence: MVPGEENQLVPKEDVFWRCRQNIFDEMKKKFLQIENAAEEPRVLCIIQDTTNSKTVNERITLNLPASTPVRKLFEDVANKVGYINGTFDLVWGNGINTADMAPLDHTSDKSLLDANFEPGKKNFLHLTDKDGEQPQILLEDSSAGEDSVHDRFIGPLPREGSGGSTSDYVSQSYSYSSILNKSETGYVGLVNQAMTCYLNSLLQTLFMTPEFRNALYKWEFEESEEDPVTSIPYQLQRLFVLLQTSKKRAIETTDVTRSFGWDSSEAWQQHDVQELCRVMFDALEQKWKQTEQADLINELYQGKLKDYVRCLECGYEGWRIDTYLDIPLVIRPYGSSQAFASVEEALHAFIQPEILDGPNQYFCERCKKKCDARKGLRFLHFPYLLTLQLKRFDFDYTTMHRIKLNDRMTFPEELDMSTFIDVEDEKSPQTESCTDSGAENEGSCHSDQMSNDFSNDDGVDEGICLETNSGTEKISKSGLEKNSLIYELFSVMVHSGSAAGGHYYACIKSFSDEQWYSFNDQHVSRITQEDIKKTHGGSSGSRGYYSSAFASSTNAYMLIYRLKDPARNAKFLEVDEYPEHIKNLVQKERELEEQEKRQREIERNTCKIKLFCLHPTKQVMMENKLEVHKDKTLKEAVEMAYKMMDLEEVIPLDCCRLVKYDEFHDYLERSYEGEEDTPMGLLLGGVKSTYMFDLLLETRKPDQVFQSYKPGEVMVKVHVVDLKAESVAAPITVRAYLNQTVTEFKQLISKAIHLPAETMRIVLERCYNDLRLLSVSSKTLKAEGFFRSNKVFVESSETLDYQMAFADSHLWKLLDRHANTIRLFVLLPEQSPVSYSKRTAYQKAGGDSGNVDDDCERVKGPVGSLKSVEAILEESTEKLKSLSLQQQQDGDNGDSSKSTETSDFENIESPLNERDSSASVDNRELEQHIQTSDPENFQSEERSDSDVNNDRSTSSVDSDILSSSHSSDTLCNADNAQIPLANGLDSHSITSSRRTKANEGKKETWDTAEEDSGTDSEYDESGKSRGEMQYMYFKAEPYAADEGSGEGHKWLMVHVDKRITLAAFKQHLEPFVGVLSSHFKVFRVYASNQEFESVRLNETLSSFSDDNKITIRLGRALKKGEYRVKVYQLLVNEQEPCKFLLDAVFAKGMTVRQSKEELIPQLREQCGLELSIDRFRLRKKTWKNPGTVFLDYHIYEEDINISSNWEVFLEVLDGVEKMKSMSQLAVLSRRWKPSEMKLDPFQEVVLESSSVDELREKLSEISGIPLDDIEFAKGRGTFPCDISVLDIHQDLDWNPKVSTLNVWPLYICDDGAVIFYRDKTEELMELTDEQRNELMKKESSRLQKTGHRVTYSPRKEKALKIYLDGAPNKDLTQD

SFB-tagged YOD1 (human) = SFB-tagged YOD1 (human) (UniProt Q5VVQ6); assay: as above
GST-OTUD1 (human) = molecular target: T4, GST-OTUD1 (human) (UniProt Q5VV17); assay: pull-down; in vitro binding; purified His-YAP incubated with purified GST-OTUD1, pulldown with Glutathione Sepharose beads; both purified
T4 sequence: T2 sequence

| binding [1] | binding (SFB-tagged JOSD2 (human)) | binding (SFB-tagged OTUD1 (human)) | binding [2] | binding (SFB-tagged USP10 (human)) | binding (SFB-tagged USP47 (human)) | binding (SFB-tagged YOD1 (human)) | binding (GST-OTUD1 (human)) | Substance |
| --- | --- | --- | --- | --- | --- | --- | --- | --- |
| binds | binds | binds | binds | binds | binds | binds |  | MYC-tagged YAP (from UniProt P46937 1-504) |
|  |  |  |  |  |  |  | binds | His-YAP (from UniProt P46937 1-504) |
